# The full ranking holds about 33,000 sequences; the median of “E-score (-0.5 to 0.5)” is about -0.015, and the highest 2% start at about 0.3. This is one part of the list.
# Biological target: T1, Abf1 (UniProt P14164)
# T1 sequence: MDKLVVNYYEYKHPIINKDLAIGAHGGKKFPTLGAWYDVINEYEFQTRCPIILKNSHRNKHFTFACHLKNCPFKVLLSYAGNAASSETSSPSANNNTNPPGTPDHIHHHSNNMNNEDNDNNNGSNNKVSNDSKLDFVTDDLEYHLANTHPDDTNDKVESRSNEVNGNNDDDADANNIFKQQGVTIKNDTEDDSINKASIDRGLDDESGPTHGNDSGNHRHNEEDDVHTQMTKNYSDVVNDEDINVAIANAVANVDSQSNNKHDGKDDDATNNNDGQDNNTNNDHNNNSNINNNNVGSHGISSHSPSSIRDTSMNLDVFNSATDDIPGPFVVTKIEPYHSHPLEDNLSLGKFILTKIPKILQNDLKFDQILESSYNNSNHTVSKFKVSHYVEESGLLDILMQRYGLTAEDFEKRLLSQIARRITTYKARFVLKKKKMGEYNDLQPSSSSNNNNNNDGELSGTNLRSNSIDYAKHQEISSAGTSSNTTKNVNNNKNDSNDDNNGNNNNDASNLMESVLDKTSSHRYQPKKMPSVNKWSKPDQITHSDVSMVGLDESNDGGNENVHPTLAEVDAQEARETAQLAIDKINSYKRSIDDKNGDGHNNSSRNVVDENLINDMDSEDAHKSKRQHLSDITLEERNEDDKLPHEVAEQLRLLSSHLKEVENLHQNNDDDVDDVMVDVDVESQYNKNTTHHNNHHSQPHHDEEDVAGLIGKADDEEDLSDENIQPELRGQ
# Assay: PBM E-score (8-mer binding enrichment) (E-score (-0.5 to 0.5)); higher = stronger / more preferred TF binding
# Details: protein concentration: 200 nM; construct: GST-full length
# How it was run: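 Yeast transcription factors, full-length or as DNA-binding domains, were expressed with a GST tag using PURExpress in vitro transcription/translation. At about 100-200 nM they were applied to universal all-10-mer Agilent arrays, double-stranded by primer extension on fresh or once-stripped slides. Fluorescent anti-GST detected bound protein, and masliner normalised the scans. E-scores for ungapped eight-base words, pooled with reverse complements, came from the Universal PBM Analysis Suite.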
row,Sequence,PBM E-score
1,ACATATAT,0.0645
2,TCCGATCA,-0.0305
3,GTCAGTGA,0.19
4,ATTGGACG,0.074
5,GTATATAA,0.286
6,AGAGAAAA,0.144
7,ACTTTGCC,-0.0733
8,AGTGACGG,0.1
9,CCCTTTGC,0.0184
10,ATTTCGGC,-0.124
11,AGCCAAGA,-0.079
12,CAGCTGCC,-0.242
13,AGTGTTTA,-0.00423
14,AGATAAAG,0.113
15,ACAATCCA,0.127
16,AACTTAGC,0.0723
17,ATGACTCG,0.137
18,ACACGAGC,0.148
19,GGATTGCC,-0.0515
20,ATTTAAAT,0.189
21,AATCGGGC,0.0396
22,ACCTTAAT,-0.0549
23,CAATTCAA,0.00215
24,CAAGCATG,0.204
25,CTAACGGC,0.181

row,Sequence,PBM E-score
1,CATTCGCG,0.0589
2,CGACGGGC,0.22
3,TAAGCATA,-0.0176
4,ATGAAGTC,0.0994
5,AATCCACG,0.164
6,GTAGGATA,0.104
7,ACGAGAAG,0.0925
8,CTAGTACC,-0.102
9,CGCCCGAC,-0.111
10,AAATGGTT,0.0299
11,AATATAAC,0.124
12,ATGGGCCA,-0.231
13,CAGTCCAA,-0.177
14,ACACGAGA,-0.0988
15,TACTACAA,0.134
16,AAGTGTTA,-0.161
17,ACCGAAAG,0.0179
18,AGACAGCA,0.0352
19,CATACTCG,-0.145
20,AATAAACC,-0.0327
21,TCGCCAGA,0.15
22,ATTAACGC,0.123
23,ACATAAAC,0.167
24,AGCGGACA,-0.115
25,TCACCGAA,0.0422

# Some values from above:
# PBM E-score with ACGAGAAG is entered as 0.0925
# PBM E-score with CTAGTACC is entered as -0.102
# PBM E-score with AATCCACG is entered as 0.164
# PBM E-score with CGCCCGAC is entered as -0.111
# PBM E-score with AATAAACC is entered as -0.0327
# PBM E-score with TACTACAA is entered as 0.134

# Remaining list, next part:

row,Sequence,PBM E-score
1,AATTAGCA,0.158
2,CTACTCGA,0.0303
3,AAAAAAGA,-0.00419
4,ACGTGATA,0.318
5,AGAGCACC,-0.24
6,ATTAACTC,0.168
7,TGGCGCAA,-0.257
8,GCCGTGAA,0.277
9,AGTCGACG,0.236
10,AGGGTAGC,-0.185
11,AGATTAAG,0.0353
12,GGGTGAAA,0.0485
13,GGTGTCTA,-0.0372
14,GAGCGTCA,-0.0359
15,CGGTATGA,0.161
16,GAGCGAAC,-0.281
17,AGCCGAGC,-0.222
18,CATGCGTC,-0.0848
19,ATATCTCG,0.125
20,GTGTGCTA,-0.01
21,ATAACACC,0.0472
22,AAGAGTCA,-0.143
23,AATGAAAG,-0.0366
24,AGCGAGTG,-0.0199
25,TCAATACA,0.0233

row,Sequence,PBM E-score
1,GTTGACCA,0.105
2,AAGTTACT,0.0476
3,CCTAGAGG,-0.0425
4,ACTATACC,0.00419
5,CGTACGGA,0.355
6,ATAAGCAG,0.132
7,ACCCGGGC,-0.288
8,CGCGCGCA,0.118
9,ATCCTCGC,-0.251
10,GCACGTCC,0.0188
11,CACCCCGA,-0.158
12,TGTTCTAA,0.0159
13,AACGGGAC,-0.0167
14,TGAGAGAA,0.0455
15,AGACGGTC,0.14
16,CACGTACG,0.277
17,GTCACAGA,0.0859
18,ATAGCGAA,0.139
19,CCCTCTAA,-0.23
20,CAACTCGC,0.0334
21,CTTGTCCA,-0.0224
22,CAACAATC,0.024
23,ACCTAGAT,-0.0984
24,CGTCCGTA,0.119
25,CCAATACC,-0.104

row,Sequence,PBM E-score
1,GCACCGGA,-0.171
2,CGAGTGGA,-0.149
3,CTGTTTTA,-0.0343
4,CAACATGC,-0.0402
5,AAAAGGTC,-0.0335
6,TAGGCCGA,-0.106
7,CTTATTTA,-0.0114
8,AGATTCAC,-0.251
9,AACCAGCC,-0.0913
10,CGGCGCGC,-0.0194
11,ATCCAAAC,0.0146
12,AGTTCCAC,-0.0322
13,TATATGGA,0.0276
14,TACGCTAA,0.0245
15,ACGTGTTC,0.044
16,CATCAGCG,-0.00857
17,CAAAAAAA,0.168
18,CAATAACG,0.0921
19,CCGTAGAC,0.0491
20,ACCTTCCT,-0.262
21,AACCCCTC,-0.292
22,CGCTCGGA,-0.195
23,CAGTTATA,-0.00778
24,TAGTACCA,-0.0108
25,TCTGTGAA,0.0637

row,Sequence,PBM E-score
1,CCCGATAA,-0.0561
2,CCAAGTGG,-0.143
3,GTATTGCA,-0.143
4,TATATTCA,0.16
5,CAGGAACA,-0.122
6,CTAGACAA,-0.128
7,CTAGTCGC,-0.0471
8,AGGGGGGC,-0.324
9,GACGTGAA,0.175
10,AACTAGCC,-0.178
11,GAAGCGGC,0.0906
12,ACAGCAAG,-0.126
13,ACGGCCCC,-0.145
14,AATTTCAG,0.0263
15,AATAACCG,0.00299
16,ATTTACAA,0.0727
17,TCCGTCAA,0.246
18,ATAACTTG,0.0937
19,AAAACTTA,0.0148
20,AGCCAAGG,-0.205
21,CCTTGCCC,-0.27
22,TGTTGTAA,-0.0104
23,AGACTAGA,-0.26
24,TACATATA,0.281
25,TCACAGGA,0.00852

row,Sequence,PBM E-score
1,CCATCTTC,0.169
2,GCGGAACC,0.0321
3,ACGCTACA,-0.102
4,GGTCCGAA,-0.00922
5,ACACCAAC,-0.204
6,AATCCTTC,-0.0571
7,CACACCAC,-0.0463
8,TACGTTCA,0.166
9,CAACGTGA,0.181
10,ATGATGCG,0.104
11,CCGCGCCG,0.00761
12,CCCGAGTC,-0.128
13,ATTGATCG,0.114
14,ATGGCAGA,0.079
15,AAACTGCG,-0.119
16,ATGCGCGG,-0.0091
17,GTTTGTTA,0.0326
18,ATCCAAAG,0.086
19,CGCCGCCG,-0.223
20,AAGGGGGG,-0.462
21,ACTAGGGC,-0.166
22,CAATCGTA,0.216
23,GTCCTAAC,0.201
24,CACAGCGC,-0.107
25,CAATTTCA,0.0575

row,Sequence,PBM E-score
1,AAAATACG,0.0051
2,CGGTCTAG,0.0644
3,GGAGGGCA,-0.214
4,TACTGGAA,0.115
5,GACTCTAC,-0.175
6,CAGTACTG,-0.137
7,ATGGATGC,-0.0845
8,ATTAACCG,0.0444
9,ACTCCATC,0.0155
10,AGTGTCAG,-0.234
11,AAGTTAGG,-0.0273
12,CTTAGGGA,0.0613
13,ACTCGTCA,0.0988
14,CCCCAACG,-0.0545
15,CGAGTAAC,0.176
16,ACTTCCCC,-0.123
17,TTCGACAA,0.00117
18,CTAGCACA,-0.185
19,ACGTGCAT,0.099
20,CAGCACAC,-0.247
21,ACAACAAG,0.0411
22,GTGTATCA,0.178
23,GGACCCTA,-0.301
24,GCTGCGGA,-0.0981
25,AGTGTCTC,-0.0718

# Five entries from above, reformatted:
row	Sequence	PBM E-score
2	CGGTCTAG	0.0644
5	GACTCTAC	-0.175
12	CTTAGGGA	0.0613
19	ACGTGCAT	0.099
23	GGACCCTA	-0.301

# (further entries)

row,Sequence,PBM E-score
1,CCGTTTAA,0.266
2,AATCCTCG,-0.221
3,ACCAGTTA,0.035
4,CGCTGTCA,-0.0219
5,ATATGGCA,0.0158
6,CACCCACG,0.262
7,GCTGCCAA,-0.152
8,GATGTTGC,0.114
9,ACAGACTC,-0.304
10,CACACAGG,-0.154
11,GTTCTTCA,0.117
12,AAATCGTA,0.267
13,ATGGCAAC,0.0541
14,GAATGGTA,0.0616
15,GTGTGTGA,0.189
16,AGTTCTTG,0.0398
17,CACTGCAC,0.0334
18,ATGGTAAA,0.0326
19,CGGAATAA,-0.274

# From the supplement of paper PMC3334620
